Reference: PMC6363986
These are yes or no findings as the source states them, for the method shown. For part of these data: Binding seen in cells or lysates may run through a third protein. Some entries that bind do so weakly or less than the wild type.

The chains behind the UniProt entries cited, without tags or fusion partners. Where a name states a change or a piece, a line headed by the entry shows the natural chain unless it says otherwise.
UniProt P42736: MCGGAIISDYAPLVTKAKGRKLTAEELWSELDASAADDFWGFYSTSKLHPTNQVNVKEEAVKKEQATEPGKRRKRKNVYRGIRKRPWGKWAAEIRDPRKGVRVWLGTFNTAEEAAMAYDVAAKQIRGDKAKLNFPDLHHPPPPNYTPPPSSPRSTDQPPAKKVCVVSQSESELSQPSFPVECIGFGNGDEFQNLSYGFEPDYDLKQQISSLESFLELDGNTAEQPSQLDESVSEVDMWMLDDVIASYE
UniProt Q9LND1: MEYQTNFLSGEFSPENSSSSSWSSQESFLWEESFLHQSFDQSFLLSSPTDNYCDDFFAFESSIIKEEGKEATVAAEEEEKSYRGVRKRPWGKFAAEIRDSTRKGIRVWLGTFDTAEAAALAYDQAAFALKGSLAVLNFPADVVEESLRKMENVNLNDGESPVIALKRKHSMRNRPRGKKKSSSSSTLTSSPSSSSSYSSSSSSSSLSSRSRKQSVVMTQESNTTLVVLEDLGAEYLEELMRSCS

Legend:
[1] = target: RAP2.3^CE (RAP2.3 fused with YFP^CE) (Arabidopsis thaliana) (UniProt P42736); experiment: split reporter; BiFC; YFP^NE and YFP^CE fusions expressed in Arabidopsis protoplasts; YFP fluorescence under a confocal microscope
[2] = target: full-length RAP2.3 fused with GAL4 BD (Arabidopsis thaliana) (UniProt P42736); experiment: two-hybrid; yeast two-hybrid; ORA59Δ1-60 fused with GAL4 AD, RAP2.3 with GAL4 BD; selective media SD/-AHLT and X-α-Gal
[3] = target: ORA59-GST (Arabidopsis thaliana) (UniProt Q9LND1); experiment: pull-down; in vitro GST pull-down; GST or ORA59-GST incubated with RAP2.3-His, precipitated with glutathione sepharose 4B beads; immunoblotting with anti-GST and anti-His

ORA59^NE (ORA59 fused with YFP^NE) (from UniProt Q9LND1 1-244)
binding [1]: binds

ORA59 with N-terminal 60 amino acids deleted (ORA59Δ1-60), fused with GAL4 AD (from UniProt Q9LND1 61-244) (domain or fragment)
binding [2]: binds

RAP2.3-His (from UniProt P42736 1-248)
binding [3]: binds
